Measurements reported in PubChem BioAssay AID1053208 (Peter MacCallum Cancer Centre, 2014).
This is a random part of about 17,000 deposited reagents. Over the whole deposit, 788 (4.7%) were called active. 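Calls rest on z-score classes alone; an extra cut-off of viability at most 70% of control was not applied to them.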 Reagents against one gene are numbered here.

- Aim: 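Synthetic lethal interactions between gene loss and doxorubicin in osteosarcoma cells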 (primary screen)
- Cell system: mouse osteosarcoma cells, early-passage culture from an engineered mouse model of fibroblastic bone tumour
- Knock-down reagent: siRNA pool against mouse genes, 40 nM
- Timing: about 120 h (48 h before drug, then 72 h with drug)
- Conditions: doxorubicin 100 nM for 72 h, roughly 30-40% inhibitory dose
- Read-out: 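Luminescent ATP signal taken as viability with or without 100 nM doxorubicin for 72 h; mean of two wells set against non-targeting siRNA and turned into robust z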
- Reading the numbers: viability z-score with doxorubicin and doxorubicin viability vs non-targeting: higher = more viable cells under doxorubicin; viability z-score without drug: higher = more viable cells with knock-down alone; z-score of drug to no-drug ratio: higher = less drug sensitisation by knock-down
- Call rule: 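Called active if knock-down leaves viability unchanged without drug (z within -2 to 2) but lowers it with doxorubicin (z at or under -2)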

target,pool no.,combined z-score class,viability z-score with doxorubicin,viability z-score without drug,z-score of drug to no-drug ratio,doxorubicin viability vs non-targeting,call
Pank2,1,high cell count with doxorubicin only,2.25,-0.67,3.04,1.14,inactive
Kcns1,1,no change with or without drug,-0.67,-0.34,-0.34,0.88,inactive
Or2ag12,1,no change with or without drug,0.22,-1.18,1.24,0.96,inactive
Btg2,1,no change with or without drug,-0.9,-0.51,-0.56,0.86,inactive
Prmt1,1,no change with or without drug,-0.34,-0.17,-0.11,0.91,inactive
Ccr9,1,no change with or without drug,-0.67,-0.84,0,0.88,inactive
Or5m3b,1,no change with or without drug,1.01,-1.52,2.47,1.03,inactive
Col4a3,1,no change with or without drug,-0.45,0,-0.34,0.9,inactive
Hspa13,1,no change with or without drug,1.01,0.67,0.67,1.03,inactive
Or5p73,1,no change with or without drug,-1.12,-0.67,-0.67,0.84,inactive
Ets2,1,no change with or without drug,1.12,0.51,0.9,1.04,inactive
Il9,1,low cell count with doxorubicin only,-2.36,-1.85,-1.24,0.73,active
Gab3,1,no change with or without drug,0.34,0.51,0.11,0.97,inactive
Gja4,1,no change with or without drug,0,-0.17,0.22,0.94,inactive
Slc35f6,1,no change with or without drug,-0.67,1.18,-1.35,0.88,inactive
Arf4,1,no change with or without drug,-0.67,-0.51,-0.22,0.88,inactive
Cpsf4,1,low cell count without drug only,-1.46,-2.02,0,0.81,inactive
Mrpl24,1,low cell count with and without drug,-2.14,-2.19,-0.79,0.75,inactive
Pik3c2b,1,no change with or without drug,0.9,0.51,0.67,1.02,inactive
Ptpn2,1,high cell count with doxorubicin only,2.02,-0.34,2.47,1.12,inactive
Insl3,1,no change with or without drug,1.46,1.52,0.56,1.07,inactive
Cnot2,1,no change with or without drug,-0.45,-1.52,0.79,0.9,inactive
Reck,1,no change with or without drug,-1.01,-1.52,0.11,0.85,inactive
Anxa11,1,no change with or without drug,-1.12,0.17,-1.12,0.84,inactive
Galk1,1,no change with or without drug,0.9,-0.17,1.24,1.02,inactive
Arhgap23,1,no change with or without drug,-1.46,-0.51,-1.12,0.81,inactive
Zmym3,1,no change with or without drug,-1.8,0.51,-2.02,0.78,inactive
4833439L19Rik,1,no change with or without drug,0.22,0.51,0,0.96,inactive
Fam76a,1,no change with or without drug,1.8,1.35,1.01,1.1,inactive
Slc39a14,1,no change with or without drug,0.9,0.34,0.79,1.02,inactive
Rad9a,1,no change with or without drug,1.01,0.51,0.79,1.03,inactive
Ero1a,1,no change with or without drug,0.45,0.34,0.34,0.98,inactive
Nsl1,1,no change with or without drug,0.45,-0.34,0.79,0.98,inactive

Reformatted: 4 of the entries above.
{"target":"Slc39a14","pool no.":1,"combined z-score class":"no change with or without drug","viability z-score with doxorubicin":0.9,"viability z-score without drug":0.34,"z-score of drug to no-drug ratio":0.79,"doxorubicin viability vs non-targeting":1.02,"call":"inactive"}
{"target":"Rad9a","pool no.":1,"combined z-score class":"no change with or without drug","viability z-score with doxorubicin":1.01,"viability z-score without drug":0.51,"z-score of drug to no-drug ratio":0.79,"doxorubicin viability vs non-targeting":1.03,"call":"inactive"}
{"target":"Ero1a","pool no.":1,"combined z-score class":"no change with or without drug","viability z-score with doxorubicin":0.45,"viability z-score without drug":0.34,"z-score of drug to no-drug ratio":0.34,"doxorubicin viability vs non-targeting":0.98,"call":"inactive"}
{"target":"Nsl1","pool no.":1,"combined z-score class":"no change with or without drug","viability z-score with doxorubicin":0.45,"viability z-score without drug":-0.34,"z-score of drug to no-drug ratio":0.79,"doxorubicin viability vs non-targeting":0.98,"call":"inactive"}

Additional results:
target,pool no.,combined z-score class,viability z-score with doxorubicin,viability z-score without drug,z-score of drug to no-drug ratio,doxorubicin viability vs non-targeting,call
Vangl2,1,no change with or without drug,-0.22,-1.01,0.56,0.92,inactive
Rcc1l,1,no change with or without drug,1.8,1.85,0.67,1.1,inactive
Sulf2,1,no change with or without drug,0.45,0.51,0.22,0.98,inactive
Tgif1,1,no change with or without drug,-1.91,-1.18,-1.12,0.77,inactive
Or6f1,1,low cell count without drug only,0.45,-2.19,2.47,0.98,inactive
Bub1,1,no change with or without drug,-0.45,0,-0.34,0.9,inactive
Eif4e,1,no change with or without drug,-1.69,0.34,-1.91,0.79,inactive
Ubap2l,1,no change with or without drug,-1.01,-0.84,-0.45,0.85,inactive
Fbxo4,1,no change with or without drug,1.24,0.51,1.01,1.05,inactive
Fbxo4,2,low cell count with doxorubicin only,-2.02,-0.84,-1.57,0.76,active
Adcy10,1,no change with or without drug,0,0.17,0,0.94,inactive
Akr1c20,1,no change with or without drug,-0.45,0.34,-0.56,0.9,inactive
Pou3f2,1,high cell count without drug only,1.12,2.36,-0.34,1.04,inactive
Rab37,1,no change with or without drug,0,0.17,0,0.94,inactive
1700123O20Rik,1,no change with or without drug,-1.01,0.84,-1.46,0.85,inactive
Eipr1,1,low cell count with and without drug,-2.47,-2.19,-1.12,0.72,inactive
Coil,1,no change with or without drug,0.79,1.01,0.22,1.01,inactive
Aldh8a1,1,no change with or without drug,0.9,-0.17,1.24,1.02,inactive
Pakap,1,no change with or without drug,-0.45,0.17,-0.45,0.9,inactive
Pakap,2,no change with or without drug,-0.67,-0.17,-0.45,0.88,inactive
Cyp4f16,1,no change with or without drug,1.35,0.51,1.12,1.06,inactive
Cd84,1,no change with or without drug,1.8,1.01,1.24,1.1,inactive
Med22,1,no change with or without drug,-0.79,0.17,-0.79,0.87,inactive
Asz1,1,no change with or without drug,0.67,-0.51,1.24,1,inactive
Pecam1,1,no change with or without drug,1.46,0.17,1.46,1.07,inactive
S100a11,1,no change with or without drug,0.34,0.34,0.22,0.97,inactive
Fndc3a,1,no change with or without drug,-0.45,-0.84,0.22,0.9,inactive
Cipc,1,no change with or without drug,-1.57,-0.84,-1.01,0.8,inactive
Trim60,1,no change with or without drug,0.11,0.17,0.11,0.95,inactive
Hcst,1,no change with or without drug,0.45,-1.52,1.8,0.98,inactive
